Test results published in US20120180150A1 (published 2012).
Results are given in words; binding and its absence hold for the method and conditions named. For some assays here: In cells and extracts the contact can be indirect. Some binding calls cover weakened binding; strength is not graded here. Blank lines part the entries; values can stand above or below the substance they belong to.

Protein sequences, listed by entry. Tags and fused reporters are not part of them. Lines headed by an entry give the natural chain unless they say otherwise; changes in a name come on top.
UniProt P11881: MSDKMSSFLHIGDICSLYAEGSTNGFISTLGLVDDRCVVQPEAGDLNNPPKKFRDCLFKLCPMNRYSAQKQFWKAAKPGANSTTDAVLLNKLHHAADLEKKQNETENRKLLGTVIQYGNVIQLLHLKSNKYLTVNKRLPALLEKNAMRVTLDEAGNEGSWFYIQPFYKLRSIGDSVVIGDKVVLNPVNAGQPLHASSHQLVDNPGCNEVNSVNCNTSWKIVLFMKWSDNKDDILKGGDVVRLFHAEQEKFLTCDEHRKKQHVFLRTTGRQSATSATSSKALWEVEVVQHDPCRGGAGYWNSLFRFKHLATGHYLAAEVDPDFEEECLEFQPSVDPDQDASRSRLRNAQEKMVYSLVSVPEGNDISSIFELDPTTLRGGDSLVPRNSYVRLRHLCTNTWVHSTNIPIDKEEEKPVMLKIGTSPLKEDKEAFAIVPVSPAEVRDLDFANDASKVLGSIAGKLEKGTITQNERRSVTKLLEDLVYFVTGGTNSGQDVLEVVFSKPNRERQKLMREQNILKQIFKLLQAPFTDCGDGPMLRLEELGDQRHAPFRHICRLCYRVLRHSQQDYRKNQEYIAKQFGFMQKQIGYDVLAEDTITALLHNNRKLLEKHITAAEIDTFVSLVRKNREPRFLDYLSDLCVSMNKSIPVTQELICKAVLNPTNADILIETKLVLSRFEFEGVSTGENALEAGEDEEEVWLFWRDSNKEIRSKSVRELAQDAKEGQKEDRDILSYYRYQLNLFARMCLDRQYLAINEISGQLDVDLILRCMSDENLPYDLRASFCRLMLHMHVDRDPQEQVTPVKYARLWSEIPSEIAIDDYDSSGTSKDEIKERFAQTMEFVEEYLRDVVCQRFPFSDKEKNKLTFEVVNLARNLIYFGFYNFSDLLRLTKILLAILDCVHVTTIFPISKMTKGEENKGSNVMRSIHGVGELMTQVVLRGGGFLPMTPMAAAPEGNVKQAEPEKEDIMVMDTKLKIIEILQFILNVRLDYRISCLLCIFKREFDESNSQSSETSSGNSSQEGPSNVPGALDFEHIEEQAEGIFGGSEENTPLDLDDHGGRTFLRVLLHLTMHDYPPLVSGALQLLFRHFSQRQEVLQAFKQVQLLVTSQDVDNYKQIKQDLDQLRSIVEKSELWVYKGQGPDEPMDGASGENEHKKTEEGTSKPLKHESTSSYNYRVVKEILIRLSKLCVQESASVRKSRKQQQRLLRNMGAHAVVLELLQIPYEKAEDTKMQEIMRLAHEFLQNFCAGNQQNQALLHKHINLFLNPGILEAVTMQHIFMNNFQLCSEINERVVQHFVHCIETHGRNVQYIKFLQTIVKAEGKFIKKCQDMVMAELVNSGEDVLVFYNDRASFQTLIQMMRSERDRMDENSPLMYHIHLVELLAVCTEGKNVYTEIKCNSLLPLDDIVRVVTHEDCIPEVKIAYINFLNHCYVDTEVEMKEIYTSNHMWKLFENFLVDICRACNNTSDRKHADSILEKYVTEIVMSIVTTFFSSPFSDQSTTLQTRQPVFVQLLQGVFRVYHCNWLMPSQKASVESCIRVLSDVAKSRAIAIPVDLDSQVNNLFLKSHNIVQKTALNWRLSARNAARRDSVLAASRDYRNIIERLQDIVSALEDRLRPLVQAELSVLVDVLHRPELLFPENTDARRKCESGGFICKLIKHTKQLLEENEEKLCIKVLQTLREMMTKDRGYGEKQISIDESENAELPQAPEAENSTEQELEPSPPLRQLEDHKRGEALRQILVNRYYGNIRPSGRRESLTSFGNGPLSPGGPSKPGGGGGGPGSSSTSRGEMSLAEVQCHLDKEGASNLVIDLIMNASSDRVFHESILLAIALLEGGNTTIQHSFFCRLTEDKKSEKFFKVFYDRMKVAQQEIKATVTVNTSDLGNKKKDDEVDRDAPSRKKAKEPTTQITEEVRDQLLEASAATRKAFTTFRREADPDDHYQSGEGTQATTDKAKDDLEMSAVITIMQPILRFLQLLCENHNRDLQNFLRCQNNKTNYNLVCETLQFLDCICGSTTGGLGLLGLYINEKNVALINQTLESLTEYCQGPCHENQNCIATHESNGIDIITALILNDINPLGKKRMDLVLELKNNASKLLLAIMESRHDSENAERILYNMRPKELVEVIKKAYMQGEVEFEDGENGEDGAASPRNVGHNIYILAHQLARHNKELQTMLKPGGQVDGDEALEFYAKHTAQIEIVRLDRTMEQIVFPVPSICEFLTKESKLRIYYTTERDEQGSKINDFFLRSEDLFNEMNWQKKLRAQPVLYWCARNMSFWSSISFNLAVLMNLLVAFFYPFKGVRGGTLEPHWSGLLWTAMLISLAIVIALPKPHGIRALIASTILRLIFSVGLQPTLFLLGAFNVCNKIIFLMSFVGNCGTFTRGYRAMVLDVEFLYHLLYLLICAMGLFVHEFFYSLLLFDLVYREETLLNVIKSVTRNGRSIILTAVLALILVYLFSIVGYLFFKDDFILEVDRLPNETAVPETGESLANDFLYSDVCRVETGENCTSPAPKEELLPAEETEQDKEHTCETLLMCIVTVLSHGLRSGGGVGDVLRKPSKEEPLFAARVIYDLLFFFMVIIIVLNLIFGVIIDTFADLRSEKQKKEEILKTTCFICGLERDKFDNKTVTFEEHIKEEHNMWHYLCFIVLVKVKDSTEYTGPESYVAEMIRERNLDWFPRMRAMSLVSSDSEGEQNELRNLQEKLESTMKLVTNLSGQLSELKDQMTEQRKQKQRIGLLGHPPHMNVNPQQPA
UniProt Q922B9: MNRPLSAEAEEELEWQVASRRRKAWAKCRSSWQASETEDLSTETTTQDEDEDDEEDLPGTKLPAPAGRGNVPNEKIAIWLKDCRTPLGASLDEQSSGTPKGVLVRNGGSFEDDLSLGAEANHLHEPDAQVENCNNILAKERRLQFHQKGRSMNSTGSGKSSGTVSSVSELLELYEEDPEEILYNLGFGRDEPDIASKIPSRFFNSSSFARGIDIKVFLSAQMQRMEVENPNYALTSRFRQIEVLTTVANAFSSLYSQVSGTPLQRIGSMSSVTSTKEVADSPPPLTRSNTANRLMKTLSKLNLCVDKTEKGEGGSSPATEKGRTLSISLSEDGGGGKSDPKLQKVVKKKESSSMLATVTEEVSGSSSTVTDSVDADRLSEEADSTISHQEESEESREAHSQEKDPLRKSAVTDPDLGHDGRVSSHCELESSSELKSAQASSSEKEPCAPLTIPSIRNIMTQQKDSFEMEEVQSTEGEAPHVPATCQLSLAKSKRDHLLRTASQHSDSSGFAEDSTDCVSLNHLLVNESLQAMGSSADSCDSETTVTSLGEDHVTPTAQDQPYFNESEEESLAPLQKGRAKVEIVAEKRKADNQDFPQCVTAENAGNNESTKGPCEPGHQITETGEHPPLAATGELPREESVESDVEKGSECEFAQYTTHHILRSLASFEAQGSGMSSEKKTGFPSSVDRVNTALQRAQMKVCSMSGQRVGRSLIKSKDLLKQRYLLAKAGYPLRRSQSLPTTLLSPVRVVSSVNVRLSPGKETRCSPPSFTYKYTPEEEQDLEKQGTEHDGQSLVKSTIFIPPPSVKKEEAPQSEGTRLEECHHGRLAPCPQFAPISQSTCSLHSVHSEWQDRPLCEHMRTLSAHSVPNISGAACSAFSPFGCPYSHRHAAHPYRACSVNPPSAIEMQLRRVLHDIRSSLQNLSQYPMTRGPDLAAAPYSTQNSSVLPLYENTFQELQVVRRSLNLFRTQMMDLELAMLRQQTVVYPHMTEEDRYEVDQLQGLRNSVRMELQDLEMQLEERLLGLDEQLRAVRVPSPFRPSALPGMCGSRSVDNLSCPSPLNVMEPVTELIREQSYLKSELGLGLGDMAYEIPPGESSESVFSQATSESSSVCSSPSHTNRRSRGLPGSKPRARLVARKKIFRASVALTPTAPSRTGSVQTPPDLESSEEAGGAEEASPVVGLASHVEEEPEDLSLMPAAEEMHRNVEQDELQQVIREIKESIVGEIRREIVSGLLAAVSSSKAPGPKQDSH

Tests used:
[1] = molecular target: endogenous IP3R1 protein of mouse tissue (mouse) (UniProt P11881); assay: immunoprecipitation from mouse tissue
[2] = molecular target: endogenous IP3R1 protein of mouse tissue (mouse) (UniProt P11881); assay: immunoprecipitation with anti-KRAP antibody from mouse tissue extracts (liver, kidney, BAT, pancreas), Western blot for IP3R1
[3] = molecular target: mouse IP3R1 full length with C-terminal GFP (mouse) (UniProt P11881); assay: HA-matrix co-immunoprecipitation from HEK 293 cells, anti-GFP Western blot
[4] = molecular target: endogenous IP3R type 3 of HCT 116 cells (human) (UniProt Q14573); assay: HA-matrix co-immunoprecipitation from HCT 116 cells, anti-IP3R3 Western blot
[5] = molecular target: mouse IP3R1 full length with C-terminal GFP (mouse) (UniProt P11881); assay: co-localisation of KRAP-HA and IP3R1-GFP in HEK 293 cells by immunofluorescence, confocal microscopy
[6] = molecular target: endogenous IP3R1 protein of mouse tissue (mouse) (UniProt P11881); assay: anti-HA affinity matrix co-purification from liver of the KRAP transgenic mouse, Western blot with anti-IP3R antibody

binding [1]: binds
binding [2]: binds
Substance: endogenous KRAP protein of mouse tissue (from UniProt Q922B9 1-1252)

binding [3]: binds
Substance: mouse KRAP deletion mutant with the coiled-coil region knocked out (1-942) (from UniProt Q922B9 1-942)

binding [3]: binds
binding [4]: binds
Substance: mouse KRAP deletion mutant, amino acid residues 1-218, N-terminal HA tag (from UniProt Q922B9 1-218)

binding [3]: binds
binding [5]: binds
binding [6]: binds
Substance: mouse KRAP protein, full length, with HA tag added to its C-terminus (from UniProt Q922B9 1-1252)
